In US8633319B2, “7-(1H-pyrazol-4-yl)-1,6-naphthyridine compounds as Syk inhibitors” (Glaxo Group Limited, priority 2010, dated 2014):
Some of these results come from one statement about several compounds together.

Biological target: T1, SYK lysate (Homo sapiens, UniProt P43405)
T1 construct: Stimulation of Ramos Cells with Anti-IgM Ab to Produce Syk & Preparation of Lysates; endogenous in cells; host or cells: Ramos B cells (human Burkitt's lymphoma, clone 296.4C10, ATCC), stimulated with anti-IgM and lysed in 1% Triton X-100
Test: Basic Syk Enzyme Activity
Assay type: biochemical
Experimental: 3 μl of SYK lysate diluted 16-fold in assay buffer (20 mM TRIS pH 7.4, 0.01% BSA, 0.1% Pluronic F-68) was added to wells containing 0.1 μl of various concentrations of compound or DMSO vehicle (1.7% final) in a Greiner low volume 384 well black plate. Following 15 min pre-incubation at room temperature, the reaction was initiated by the addition of 3 μl of substrate reagent containing Y7 Sox peptide, (Invitrogen Cat. # KNZ3071, 5 μM final), ATP (35 μM final) and MgCl2 (10 mM final) in assay buffer. The reaction was incubated at room temperature before measuring fluorescence intensity (λex 360/λem 485) on an Envision plate reader (Perkin Elmer Life Sciences, Waltham, Mass., USA) at 15 min and 55 min post-substrate addition.
Ramos B Cells (human B cells of Burkitt's lymphoma, clone 296.4C10, ATCC) were cultured in suspension in growth medium (RPMI-1640, Sigma; supplemented with 2 mM L-glutamine, Gibco; 10 mM Hepes, Sigma; 1 mM sodium pyruvate, Sigma; 10% v/v heat-inactivated FCS, Gibco). Cells were grown in Corning Cellstacks (6360 cm^2) in 1 liter volume and viability and cell density were monitored daily. Cells were maintained at <1.5×10e6/ml and >92% viability.
Cells were stimulated at 20×10^6 cells/ml using 15 ug/ml (final concentration) anti-IgM antibody. Following harvest (as described above), a total of 4×10^9 cells were resuspended in 180 ml pre-warmed (37° C.) DPBS in a Corning 500 ml centrifuge bottle. 20 ml anti-IgM antibody at 150 ug/ml were added to each 500 ml centrifuge bottle (working stock made up in DPBS pre-warmed to 37° C.). Cells were incubated for exactly 5 min at 37° C. following the addition of anti IgM antibody. Following 5 min stimulation, 300 ml ice-cold DPBS were added to each bottle to stop the stimulation (temperature drops to ˜12° C.) then cells were centrifuged at 2000 rpm (Sorvall Legend RT+ centrifuge—pre-chilled to 4° C.). Cells were washed by resuspension in ice-cold DPBS and centrifugation as above. The cell pellet was then lysed in ice-cold lysis buffer containing 1% triton-x-100 at a ratio of 150 ul/1×10^7 cells (i.e. 48 ml lysis buffer). Following the addition of lysis buffer, the cells were pipetted up & down & kept on ice for 15 min. The clarified lysate was then obtained by centrifugation (Sorvall Evolution RC (SLA-1500 rotor, ˜20,000 g (˜14,500 rpm), 45 min, 4° C.).
Lysate was aliquoted, snap-frozen on dry-ice & stored at −80° C. prior to assay.
Lysis Buffer: 50 mM TRIS pH7.5+150 mM NaCl+1% Triton-X-100+2 mM EGTA+1:100 dilution inhibitor cocktails (phosphatase inhibitor cocktail set II, calbiochem cat no. 524625 & protease inhibitor cocktail set V, calbiochem cat no. 539137)

SMILES | IC50 (as the free base) [nM] | IC50 (hydrochloric acid salts) [nM]
FC1(CNc2nc(-c3cnn(C4CCCC4)c3)cc3ncccc23)CCCNC1 (racemic) [Example 8, 7-(1-cyclopentyl-1H-pyrazol-4-yl)-N-[(3-fluoro-3-piperidinyl)methyl]-1,6-naphthyridin-5-amine] | < 1000 | –
FC1(CNc2nc(-c3cnn(Cc4ccccc4)c3)cc3ncccc23)CCCNC1 (racemic) [Example 10, N-[(3-fluoro-3-piperidinyl)methyl]-7-[1-(phenylmethyl)-1H-pyrazol-4-yl]-1,6-naphthyridin-5-amine] | < 1000 | –
FC(F)(F)Cn1cc(-c2cc3ncccc3c(NCC3(F)CCCNC3)n2)cn1 (single isomer, unassigned) [Example 9A, N-{[3-fluoro-3-piperidinyl]methyl}-7-[1-(2,2,2-trifluoroethyl)-1H-pyrazol-4-yl]-1,6-naphthyridin-5-amine] | < 1000 | –
CC(C)n1cc(-c2cc3ncccc3c(NCC3(F)CCCNC3)n2)cn1 (single isomer, unassigned) [Example 11A, N-{[3-fluoro-3-piperidinyl]methyl}-7-[1-(1-methylethyl)-1H-pyrazol-4-yl]-1,6-naphthyridin-5-amine] | < 1000 | –
CCn1cc(-c2cc3ncccc3c(NC[C@]3(F)CCCNC3)n2)cn1 [Example 1, 7-(1-Ethyl-1H-pyrazol-4-yl)-N-{[(3S)-3-fluoro-3-piperidinyl]methyl}-1,6-naphthyridin-5-amine] | < 1000 | < 1000
CC(C)(C)n1cc(-c2cc3ncccc3c(NC[C@]3(F)CCCNC3)n2)cn1 [Example 2, 7-[1-(1,1-Dimethylethyl)-1H-pyrazol-4-yl]-N-{[(3S)-3-fluoro-3-piperidinyl]methyl}-1,6-naphthyridin-5-amine] | < 1000 | < 1000
COCn1cc(-c2cc3ncccc3c(NC[C@]3(F)CCCNC3)n2)cn1 [Example 3, N-{[(3S)-3-Fluoro-3-piperidinyl]methyl}-7-{1-[(methyloxy)methyl]-1H-pyrazol-4-yl}-1,6-naphthyridin-5-amine] | < 1000 | < 1000
CCn1cc(-c2cc3ncccc3c(OC[C@]3(F)CCCNC3)n2)cn1 [Example 4, 7-(1-Ethyl-1H-pyrazol-4-yl)-5-({[(3S)-3-fluoro-3-piperidinyl]methyl}oxy)-1,6-naphthyridine] | < 1000 | < 1000
CC(C)(O)Cn1cc(-c2cc3ncccc3c(NC[C@]3(F)CCCNC3)n2)cn1 [Example 5, 1-{4-[5-({[(3S)-3-fluoro-3-piperidinyl]methyl}amino)-1,6-naphthyridin-7-yl]-1H-pyrazol-1-yl}-2-methyl-2-propanol] | < 1000 | –
OCCn1cc(-c2cc3ncccc3c(NC[C@]3(F)CCCNC3)n2)cn1 [Example 6, 2-{4-[5-({[(3S)-3-fluoro-3-piperidinyl]methyl}amino)-1,6-naphthyridin-7-yl]-1H-pyrazol-1-yl}ethanol] | – | < 1000
COCCn1cc(-c2cc3ncccc3c(NC[C@]3(F)CCCNC3)n2)cn1 [Example 7, N-{[(3S)-3-fluoro-3-piperidinyl]methyl}-7-{1-[2-(methyloxy)ethyl]-1H-pyrazol-4-yl}-1,6-naphthyridin-5-amine] | < 1000 | –
